The target of data set [1] is T1, MgFur in DNA co-crystals (Magnetospirillum gryphiswaldense MSR-1) (UniProt V6F4Q0).
T1 sequence (looked up, limits assumed): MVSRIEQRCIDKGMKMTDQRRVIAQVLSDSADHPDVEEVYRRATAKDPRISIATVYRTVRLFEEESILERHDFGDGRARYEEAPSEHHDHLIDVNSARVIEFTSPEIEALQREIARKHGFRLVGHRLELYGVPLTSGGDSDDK
In words: size-exclusion chromatography. Particulars: 1 mM Mn2+; recombinant protein.

Data set [2] concerns the target T1, MgFur in DNA co-crystals (Magnetospirillum gryphiswaldense MSR-1). In words: X-ray crystallography. The note with it: Mn2+, PDB among 4RAY-4RB3, not assigned in text, recombinant protein.
Data set [3] concerns the target T2, MgFur WT (Magnetospirillum gryphiswaldense MSR-1) (UniProt V6F4Q0).
T2 sequence (looked up, limits assumed): T1 sequence (looked up, limits assumed)
As to the kind of experiment: SPR. Particulars: 1 mM Mn2+; SPR: 20 mM Tris-HCl pH 8.0, 150 mM NaCl, 1 mM MnCl2, 0.005% Tween20, 25 C; recombinant protein.

The text below walks through data of PMC4506495.

A word on the Kd: it is the free concentration of one partner at which half of the binding sites on the other are occupied at equilibrium, for simple one-to-one binding.

For at least one entry, the source does not settle the construct or the ends of the probe. For some assays here: At least one verdict was read from the data and is not stated in words by the source. Where a protein sequence is shown, tags need not be part of it.

On to “CGCGATAATGATAATCATTATCCGC (double strand) [P. aeruginosa Fur box (crystal)]”, for which the binding result in data set [1] is “binds”; in data set [2] (two dimers per DNA, 2.75 A), “binds”.

Consider “TTAATTGCAAATCATTTGCAATTGC (double strand)”, for which the binding result in data set [1] is listed as “binds”; in data set [2] (one dimer per DNA, 2.6 A), “binds”.

In the case of “TTAATTGCAAATCATTTGCAATTGC (double strand) [mutated feoAB1 operator (SPR)]”, the Kd in data set [3] was 73.2 nM.
